Results are given in words; binding and its absence hold for the method and conditions named. Binding seen in cells or lysates may run through a third protein. Some results given as binding are weak or reduced against the parent protein; the word gives no strength.
Assays:
[1] = molecular target: T1, Fas (death receptor), mouse (mouse (endogenous in splenic CD8+ T cells of C57BL/6 mice)) (UniProt P25446); test: co-IP; lysates of naive and PHA-stimulated mouse splenic CD8+ T cells not treated with rHGF (time zero); IP with anti-Fas or anti-c-Met on protein A/G magnetic beads, IB with anti-c-Met or anti-Fas
T1 sequence: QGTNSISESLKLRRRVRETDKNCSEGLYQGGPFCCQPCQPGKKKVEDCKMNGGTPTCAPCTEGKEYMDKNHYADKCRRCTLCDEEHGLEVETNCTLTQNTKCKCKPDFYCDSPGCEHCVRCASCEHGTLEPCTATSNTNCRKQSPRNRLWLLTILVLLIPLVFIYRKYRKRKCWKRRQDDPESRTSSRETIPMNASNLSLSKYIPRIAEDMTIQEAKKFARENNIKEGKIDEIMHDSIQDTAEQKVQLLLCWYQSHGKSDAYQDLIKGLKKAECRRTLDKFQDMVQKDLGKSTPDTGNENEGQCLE

Chains of the proteins cited; added tags and fusions are not shown. Residues count along the entry.
UniProt P25445, residues 26-335: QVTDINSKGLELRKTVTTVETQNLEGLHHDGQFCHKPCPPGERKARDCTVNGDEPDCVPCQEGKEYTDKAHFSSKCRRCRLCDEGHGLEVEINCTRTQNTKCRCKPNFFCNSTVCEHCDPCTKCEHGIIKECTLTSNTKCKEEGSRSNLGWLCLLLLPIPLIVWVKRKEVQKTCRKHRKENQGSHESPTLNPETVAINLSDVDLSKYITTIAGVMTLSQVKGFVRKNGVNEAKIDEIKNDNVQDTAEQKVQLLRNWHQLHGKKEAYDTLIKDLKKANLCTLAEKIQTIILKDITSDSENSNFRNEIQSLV
UniProt P16056, residues 25-1379: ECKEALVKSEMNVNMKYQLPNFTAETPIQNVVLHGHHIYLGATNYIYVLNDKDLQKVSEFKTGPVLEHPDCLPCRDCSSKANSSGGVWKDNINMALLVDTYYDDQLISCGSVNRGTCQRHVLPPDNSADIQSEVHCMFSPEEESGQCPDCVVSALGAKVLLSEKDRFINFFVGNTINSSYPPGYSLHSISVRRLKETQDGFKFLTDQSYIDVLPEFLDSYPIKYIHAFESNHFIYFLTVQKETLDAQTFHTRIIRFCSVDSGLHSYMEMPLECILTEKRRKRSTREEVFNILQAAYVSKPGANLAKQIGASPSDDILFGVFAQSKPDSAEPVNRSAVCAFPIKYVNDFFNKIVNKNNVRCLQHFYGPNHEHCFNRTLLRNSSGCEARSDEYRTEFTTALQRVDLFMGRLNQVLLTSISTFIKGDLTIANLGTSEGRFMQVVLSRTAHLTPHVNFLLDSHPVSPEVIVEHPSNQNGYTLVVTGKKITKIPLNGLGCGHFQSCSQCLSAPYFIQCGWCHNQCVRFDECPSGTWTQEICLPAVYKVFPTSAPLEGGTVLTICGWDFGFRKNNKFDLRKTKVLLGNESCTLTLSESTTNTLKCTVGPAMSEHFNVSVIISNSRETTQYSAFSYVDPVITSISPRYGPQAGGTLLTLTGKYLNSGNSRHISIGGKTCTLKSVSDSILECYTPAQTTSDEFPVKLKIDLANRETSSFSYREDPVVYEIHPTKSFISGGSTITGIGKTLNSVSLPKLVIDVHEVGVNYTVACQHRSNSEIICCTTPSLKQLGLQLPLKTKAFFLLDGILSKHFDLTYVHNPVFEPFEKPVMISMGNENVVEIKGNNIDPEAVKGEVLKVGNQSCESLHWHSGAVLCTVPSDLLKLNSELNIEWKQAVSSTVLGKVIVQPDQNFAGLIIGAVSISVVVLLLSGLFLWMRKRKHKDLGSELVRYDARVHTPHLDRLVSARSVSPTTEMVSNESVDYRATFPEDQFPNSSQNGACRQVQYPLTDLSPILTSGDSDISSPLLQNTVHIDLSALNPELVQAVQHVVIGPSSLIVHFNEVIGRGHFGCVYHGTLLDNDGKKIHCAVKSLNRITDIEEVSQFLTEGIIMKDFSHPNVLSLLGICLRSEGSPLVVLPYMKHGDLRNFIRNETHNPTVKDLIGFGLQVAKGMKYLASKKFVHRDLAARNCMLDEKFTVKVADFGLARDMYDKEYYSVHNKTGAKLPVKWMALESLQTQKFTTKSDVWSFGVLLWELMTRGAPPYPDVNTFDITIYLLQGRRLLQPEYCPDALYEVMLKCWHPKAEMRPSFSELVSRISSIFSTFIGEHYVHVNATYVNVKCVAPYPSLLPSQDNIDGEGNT
UniProt P08581, residues 25-1390: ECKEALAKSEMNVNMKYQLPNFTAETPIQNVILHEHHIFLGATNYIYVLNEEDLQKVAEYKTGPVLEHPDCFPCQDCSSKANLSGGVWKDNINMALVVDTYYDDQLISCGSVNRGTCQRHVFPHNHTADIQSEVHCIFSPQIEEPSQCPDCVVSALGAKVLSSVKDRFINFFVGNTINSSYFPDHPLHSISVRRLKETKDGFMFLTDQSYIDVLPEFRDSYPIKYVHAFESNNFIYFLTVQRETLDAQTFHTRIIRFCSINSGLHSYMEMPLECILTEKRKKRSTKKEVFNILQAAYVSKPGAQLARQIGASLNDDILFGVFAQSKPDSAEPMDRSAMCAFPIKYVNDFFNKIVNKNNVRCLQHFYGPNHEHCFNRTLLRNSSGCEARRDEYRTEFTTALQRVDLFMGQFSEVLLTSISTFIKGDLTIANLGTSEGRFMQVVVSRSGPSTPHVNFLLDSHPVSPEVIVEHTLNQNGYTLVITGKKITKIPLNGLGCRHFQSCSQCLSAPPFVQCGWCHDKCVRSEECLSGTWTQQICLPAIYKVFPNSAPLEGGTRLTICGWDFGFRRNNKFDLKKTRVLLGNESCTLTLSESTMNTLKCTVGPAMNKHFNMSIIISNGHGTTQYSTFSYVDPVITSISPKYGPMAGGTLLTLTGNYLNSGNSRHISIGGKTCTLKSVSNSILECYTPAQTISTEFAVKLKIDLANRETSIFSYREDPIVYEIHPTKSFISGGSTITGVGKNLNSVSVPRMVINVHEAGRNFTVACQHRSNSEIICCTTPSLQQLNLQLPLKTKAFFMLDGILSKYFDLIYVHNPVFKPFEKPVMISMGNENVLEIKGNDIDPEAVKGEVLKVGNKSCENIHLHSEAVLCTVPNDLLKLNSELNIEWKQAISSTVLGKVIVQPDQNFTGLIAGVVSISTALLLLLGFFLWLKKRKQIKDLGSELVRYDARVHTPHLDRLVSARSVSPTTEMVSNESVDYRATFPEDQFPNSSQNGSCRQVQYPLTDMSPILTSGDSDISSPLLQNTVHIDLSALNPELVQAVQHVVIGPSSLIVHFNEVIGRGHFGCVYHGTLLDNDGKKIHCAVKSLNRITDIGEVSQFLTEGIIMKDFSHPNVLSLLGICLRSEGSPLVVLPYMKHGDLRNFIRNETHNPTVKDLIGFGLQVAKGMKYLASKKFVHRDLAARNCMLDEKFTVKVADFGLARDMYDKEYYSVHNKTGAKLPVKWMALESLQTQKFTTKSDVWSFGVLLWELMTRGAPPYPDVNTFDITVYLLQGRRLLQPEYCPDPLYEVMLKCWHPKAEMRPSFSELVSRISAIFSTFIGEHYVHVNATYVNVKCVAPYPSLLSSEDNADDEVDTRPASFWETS

[2] = molecular target: T1, Fas (death receptor), mouse (mouse (endogenous in splenic CD8+ T cells of C57BL/6 mice)); test: condition: only cells treated with 400 ng/mL rHGF for 48 and 72 h; co-IP; as a1, but cells treated with 400 ng/mL rHGF for 48 and 72 h before lysis
[3] = molecular target: Fas (death receptor), human (human (endogenous in peripheral blood CD8+ T cells)) (UniProt P25445); test: co-IP; lysates of naive and PHA-stimulated healthy human peripheral blood CD8+ T cells, with or without 400 ng/mL rHGF for 48 and 72 h; IP with anti-Fas or anti-c-Met, IB with anti-c-Met or anti-Fas
[4] = molecular target: T2, Fas (death receptor), mouse (mouse (endogenous in splenic CD8+ T cells of C57BL/6 mice)), P25446; test: co-IP; DISC analysis: lysates of naive and PHA-stimulated mouse splenic CD8+ T cells treated with 400 ng/mL rHGF (48 and 72 h); IP with anti-Fas, IB with anti-FADD, anti-caspase-8 and anti-caspase-3; conditions: remark: other sources report otherwise
T2 chain: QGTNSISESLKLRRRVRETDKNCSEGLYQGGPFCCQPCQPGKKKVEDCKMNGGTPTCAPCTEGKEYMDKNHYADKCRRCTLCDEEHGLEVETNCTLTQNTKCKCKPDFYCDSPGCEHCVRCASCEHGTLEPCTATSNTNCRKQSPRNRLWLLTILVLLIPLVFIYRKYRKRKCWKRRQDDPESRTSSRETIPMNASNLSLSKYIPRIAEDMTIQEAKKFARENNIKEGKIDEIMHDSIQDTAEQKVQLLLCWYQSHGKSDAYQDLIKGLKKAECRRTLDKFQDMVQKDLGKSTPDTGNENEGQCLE

[5] = molecular target: T1, Fas (death receptor), mouse (mouse (endogenous in splenic CD8+ T cells of C57BL/6 mice)); test: as above

c-Met (hepatocyte growth factor receptor), mouse (from UniProt P16056 25-1379)
binding [1]: binds
binding [2]: no binding

c-Met (hepatocyte growth factor receptor), human (from UniProt P08581 25-1390)
binding [3]: binds

B1: Fas-associated death domain (FADD), mouse, Q61160 1-205 (protein)
chain: MDPFLVLLHSLSGSLSGNDLMELKFLCRERVSKRKLERVQSGLDLFTVLLEQNDLERGHTGLLRELLASLRRHDLLQRLDDFEAGTATAAPPGEADLQVAFDIVCDNVGRDWKRLARELKVSEAKMDGIEEKYPRSLSERVRESLKVWKNAEKKNASVAGLVKALRTCRLNLVADLVEEAQESVSKSENMSPVLRDSTVSSSETP
binding [4]: binds

B2: caspase-8, mouse (enzyme, UniProt O89110 1-480)
chain: MDFQSCLYAIAEELGSEDLAALKFLCLDYIPHKKQETIEDAQKLFLRLREKGMLEEGNLSFLKELLFHISRWDLLVNFLDCNREEMVRELRDPDNAQISPYRVMLFKLSEEVSELELRSFKFLLNNEIPKCKLEDDLSLLEIFVEMEKRTMLAENNLETLKSICDQVNKSLLGKIEDYERSSTERRMSLEGREELPPSVLDEMSLKMAELCDSPREQDSESRTSDKVYQMKNKPRGYCLIINNHDFSKAREDITQLRKMKDRKGTDCDKEALSKTFKELHFEIVSYDDCTANEIHEILEGYQSADHKNKDCFICCILSHGDKGVVYGTDGKEASIYDLTSYFTGSKCPSLSGKPKIFFIQACQGSNFQKGVPDEAGFEQQNHTLEVDSSSHKNYIPDEADFLLGMATVKNCVSYRDPVNGTWYIQSLCQSLRERCPQGDDILSILTGVNYDVSNKDDRRNKGKQMPQPTFTLRKKLFFPP
binding [5]: binds

From article PMC9852593
